The other results are listed elsewhere or left out.
Assays:
Assay in all cases: log2 fold change, soluble protein after heating vs DMSO (PISA); higher = thermal stabilisation; K562 lysate, 10 uM; active = over 0.2 and 3.5 SD of the protein, either way, in both replicates (recomputed)
[1] = compound: C1=CC=C(C=C1)[C@H](COC2=CC3=C(C=C2)NC(=O)N3)NC(=O)C4=CC=CN(C4=O)CC5=CC(=C(C=C5)F)F
Summary of the method: (§1)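 Values give the log-two fold change in thermal stability against solvent controls, from duplicates. Crude K562 extract at 1 mg/mL protein, made by dounce homogenisation in PBS pH 7.4 with 1 mM MgCl2, was treated with 10 μM compound for 30 min. After 3 min heating across 48°C-58°C, aliquots were pooled, adjusted to 0.5% NP-40 at 4°C and centrifuged at 21,000xg for 90 min. The supernatant was measured by TMTpro 16plex LC-MS/MS with channel sums equalised.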

Chains of the proteins cited; added tags and fusions are not shown. Lines headed by an entry give the natural chain unless they say otherwise; changes in a name come on top.
UniProt Q9UI10, whole entry, looked up: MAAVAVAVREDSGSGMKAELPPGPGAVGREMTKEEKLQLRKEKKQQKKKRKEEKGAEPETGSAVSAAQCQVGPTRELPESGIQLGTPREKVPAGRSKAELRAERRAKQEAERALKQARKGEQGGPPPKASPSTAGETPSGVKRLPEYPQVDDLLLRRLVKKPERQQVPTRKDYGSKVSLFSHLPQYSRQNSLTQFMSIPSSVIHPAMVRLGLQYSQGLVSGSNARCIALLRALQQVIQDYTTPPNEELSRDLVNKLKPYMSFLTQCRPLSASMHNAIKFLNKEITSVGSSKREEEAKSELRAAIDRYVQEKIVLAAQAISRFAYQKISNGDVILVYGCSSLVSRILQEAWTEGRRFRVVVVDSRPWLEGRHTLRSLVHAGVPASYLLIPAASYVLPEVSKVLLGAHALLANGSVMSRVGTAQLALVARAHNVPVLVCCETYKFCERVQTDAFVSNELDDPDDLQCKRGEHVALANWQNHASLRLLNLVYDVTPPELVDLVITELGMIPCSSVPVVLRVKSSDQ
UniProt P20042, whole entry, looked up: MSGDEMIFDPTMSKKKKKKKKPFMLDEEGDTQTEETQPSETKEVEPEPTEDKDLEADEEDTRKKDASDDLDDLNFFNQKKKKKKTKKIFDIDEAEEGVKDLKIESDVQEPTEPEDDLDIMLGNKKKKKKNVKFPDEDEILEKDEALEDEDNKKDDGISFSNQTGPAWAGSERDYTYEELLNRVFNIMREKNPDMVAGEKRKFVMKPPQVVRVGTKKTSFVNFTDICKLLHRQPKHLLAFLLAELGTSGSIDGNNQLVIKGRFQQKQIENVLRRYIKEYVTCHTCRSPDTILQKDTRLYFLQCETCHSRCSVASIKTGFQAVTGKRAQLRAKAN
UniProt Q14152, whole entry, looked up: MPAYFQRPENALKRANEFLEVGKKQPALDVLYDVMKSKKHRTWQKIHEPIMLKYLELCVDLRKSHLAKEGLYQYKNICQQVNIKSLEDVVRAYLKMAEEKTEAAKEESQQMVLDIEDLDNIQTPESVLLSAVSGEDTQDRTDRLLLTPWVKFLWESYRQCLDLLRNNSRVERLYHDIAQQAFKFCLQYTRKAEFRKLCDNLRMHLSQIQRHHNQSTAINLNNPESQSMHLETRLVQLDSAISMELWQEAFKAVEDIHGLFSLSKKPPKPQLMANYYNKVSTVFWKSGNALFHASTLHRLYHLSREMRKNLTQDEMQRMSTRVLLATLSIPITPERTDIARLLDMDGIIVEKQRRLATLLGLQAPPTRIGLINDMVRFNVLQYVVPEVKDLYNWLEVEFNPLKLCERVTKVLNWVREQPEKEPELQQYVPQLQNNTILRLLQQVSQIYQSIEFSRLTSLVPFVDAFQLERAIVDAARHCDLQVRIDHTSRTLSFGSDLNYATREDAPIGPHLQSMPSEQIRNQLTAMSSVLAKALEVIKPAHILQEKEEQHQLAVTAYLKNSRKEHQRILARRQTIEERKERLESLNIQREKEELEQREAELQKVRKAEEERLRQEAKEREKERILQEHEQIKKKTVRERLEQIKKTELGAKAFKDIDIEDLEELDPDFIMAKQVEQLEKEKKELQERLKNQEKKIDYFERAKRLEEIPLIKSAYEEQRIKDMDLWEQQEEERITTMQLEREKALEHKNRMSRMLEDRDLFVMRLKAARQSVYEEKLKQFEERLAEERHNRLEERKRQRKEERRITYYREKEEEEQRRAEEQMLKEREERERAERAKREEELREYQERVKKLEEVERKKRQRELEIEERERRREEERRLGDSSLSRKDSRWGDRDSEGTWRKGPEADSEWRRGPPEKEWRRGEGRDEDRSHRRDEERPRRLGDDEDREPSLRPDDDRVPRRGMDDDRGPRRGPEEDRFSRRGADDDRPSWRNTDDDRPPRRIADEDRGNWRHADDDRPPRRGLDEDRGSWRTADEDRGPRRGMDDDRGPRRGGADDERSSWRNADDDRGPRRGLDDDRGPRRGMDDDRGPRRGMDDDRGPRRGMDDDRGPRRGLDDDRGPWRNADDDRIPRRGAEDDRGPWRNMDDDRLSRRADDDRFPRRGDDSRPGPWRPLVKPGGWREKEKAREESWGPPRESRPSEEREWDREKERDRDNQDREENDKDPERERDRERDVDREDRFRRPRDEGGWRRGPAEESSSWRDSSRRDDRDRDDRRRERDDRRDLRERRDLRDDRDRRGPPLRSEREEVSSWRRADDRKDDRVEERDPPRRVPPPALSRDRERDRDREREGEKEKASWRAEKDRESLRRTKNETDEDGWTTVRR
UniProt Q6IA86: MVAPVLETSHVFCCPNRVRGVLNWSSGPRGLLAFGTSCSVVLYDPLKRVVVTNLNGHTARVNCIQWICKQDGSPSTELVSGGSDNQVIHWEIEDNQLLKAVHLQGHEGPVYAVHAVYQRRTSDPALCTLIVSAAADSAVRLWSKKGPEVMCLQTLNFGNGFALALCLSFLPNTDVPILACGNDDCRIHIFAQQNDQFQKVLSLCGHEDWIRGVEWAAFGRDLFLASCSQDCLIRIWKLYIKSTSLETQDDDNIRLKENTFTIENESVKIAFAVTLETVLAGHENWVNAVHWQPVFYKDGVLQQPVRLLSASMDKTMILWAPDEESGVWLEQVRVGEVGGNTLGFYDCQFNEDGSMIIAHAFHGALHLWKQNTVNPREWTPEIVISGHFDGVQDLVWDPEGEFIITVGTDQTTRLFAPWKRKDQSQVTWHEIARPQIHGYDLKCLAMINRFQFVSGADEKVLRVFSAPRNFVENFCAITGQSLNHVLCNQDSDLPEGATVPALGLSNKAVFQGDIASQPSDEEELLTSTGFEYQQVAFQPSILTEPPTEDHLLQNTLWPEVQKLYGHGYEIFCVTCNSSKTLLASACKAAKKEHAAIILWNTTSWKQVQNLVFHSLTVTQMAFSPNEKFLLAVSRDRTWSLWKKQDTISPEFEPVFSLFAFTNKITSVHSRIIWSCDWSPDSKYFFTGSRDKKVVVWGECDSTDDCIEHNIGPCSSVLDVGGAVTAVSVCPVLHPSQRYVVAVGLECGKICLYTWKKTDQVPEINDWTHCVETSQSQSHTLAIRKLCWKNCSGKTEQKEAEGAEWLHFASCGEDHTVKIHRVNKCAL
UniProt Q53HC9: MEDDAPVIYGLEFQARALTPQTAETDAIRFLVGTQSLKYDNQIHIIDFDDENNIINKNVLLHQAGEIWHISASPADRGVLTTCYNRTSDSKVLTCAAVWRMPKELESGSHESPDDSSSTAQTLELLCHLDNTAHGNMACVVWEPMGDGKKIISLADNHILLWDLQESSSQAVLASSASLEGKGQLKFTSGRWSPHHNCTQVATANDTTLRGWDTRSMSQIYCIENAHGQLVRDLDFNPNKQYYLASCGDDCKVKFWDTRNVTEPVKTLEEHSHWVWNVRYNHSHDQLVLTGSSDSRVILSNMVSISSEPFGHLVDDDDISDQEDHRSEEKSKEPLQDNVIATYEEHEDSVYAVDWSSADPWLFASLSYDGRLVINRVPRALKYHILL
UniProt Q9BW60: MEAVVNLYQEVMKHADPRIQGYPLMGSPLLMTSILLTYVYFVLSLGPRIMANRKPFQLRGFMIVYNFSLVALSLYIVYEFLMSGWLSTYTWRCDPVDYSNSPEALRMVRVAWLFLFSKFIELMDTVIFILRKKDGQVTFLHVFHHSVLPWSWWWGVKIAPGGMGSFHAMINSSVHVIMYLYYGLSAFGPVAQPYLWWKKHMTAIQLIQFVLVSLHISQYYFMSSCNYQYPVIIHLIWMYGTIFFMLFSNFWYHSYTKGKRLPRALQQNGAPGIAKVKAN
UniProt Q9UBQ5, whole entry, looked up: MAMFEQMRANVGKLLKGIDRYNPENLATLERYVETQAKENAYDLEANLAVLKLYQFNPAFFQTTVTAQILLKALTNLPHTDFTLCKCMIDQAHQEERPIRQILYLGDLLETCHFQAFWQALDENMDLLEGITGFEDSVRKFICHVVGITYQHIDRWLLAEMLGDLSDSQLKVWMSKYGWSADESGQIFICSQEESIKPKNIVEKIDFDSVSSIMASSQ
UniProt O94919: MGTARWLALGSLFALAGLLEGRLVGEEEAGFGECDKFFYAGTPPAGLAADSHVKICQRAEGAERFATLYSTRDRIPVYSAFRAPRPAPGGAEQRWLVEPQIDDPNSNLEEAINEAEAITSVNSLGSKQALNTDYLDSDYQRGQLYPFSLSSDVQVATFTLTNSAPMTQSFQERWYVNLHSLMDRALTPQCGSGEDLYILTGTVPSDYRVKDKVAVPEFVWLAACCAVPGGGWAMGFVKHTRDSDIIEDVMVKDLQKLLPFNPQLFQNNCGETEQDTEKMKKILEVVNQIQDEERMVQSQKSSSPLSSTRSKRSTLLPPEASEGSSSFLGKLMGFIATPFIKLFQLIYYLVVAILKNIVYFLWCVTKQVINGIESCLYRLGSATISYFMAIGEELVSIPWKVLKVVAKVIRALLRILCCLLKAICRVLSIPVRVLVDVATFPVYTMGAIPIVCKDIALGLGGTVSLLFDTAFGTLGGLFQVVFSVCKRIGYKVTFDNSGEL
UniProt Q8TE68: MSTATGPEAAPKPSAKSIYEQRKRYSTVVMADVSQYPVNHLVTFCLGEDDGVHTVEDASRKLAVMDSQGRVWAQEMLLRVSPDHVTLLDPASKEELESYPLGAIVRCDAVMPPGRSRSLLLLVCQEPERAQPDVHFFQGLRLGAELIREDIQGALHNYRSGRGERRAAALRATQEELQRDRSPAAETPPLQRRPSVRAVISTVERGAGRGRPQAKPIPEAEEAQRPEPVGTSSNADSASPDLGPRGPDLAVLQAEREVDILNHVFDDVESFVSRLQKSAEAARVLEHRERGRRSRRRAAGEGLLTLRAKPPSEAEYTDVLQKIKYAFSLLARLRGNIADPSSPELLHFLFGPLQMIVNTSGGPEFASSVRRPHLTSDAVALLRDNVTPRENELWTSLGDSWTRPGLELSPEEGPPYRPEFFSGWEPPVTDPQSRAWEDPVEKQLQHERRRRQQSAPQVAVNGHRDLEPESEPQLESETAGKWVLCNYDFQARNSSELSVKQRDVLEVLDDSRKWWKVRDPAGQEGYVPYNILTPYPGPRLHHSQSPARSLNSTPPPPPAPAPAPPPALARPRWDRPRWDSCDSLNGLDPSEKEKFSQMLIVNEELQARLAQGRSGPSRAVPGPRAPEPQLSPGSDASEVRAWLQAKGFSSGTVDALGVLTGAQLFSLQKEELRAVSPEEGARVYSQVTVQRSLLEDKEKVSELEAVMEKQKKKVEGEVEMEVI

[2] = compound: CC1=C(SC2=C1C(=N[C@H](C3=NN=C(N32)C)CC(=O)N)C4=CC=C(C=C4)Cl)C
Summary of the method: as §1

[3] = compound: CC1=C2C(=CC=C1)N=C(N(C2=O)C3=CC=CC=C3C)CN4C=NC5=C(N=CN=C54)N
Summary of the method: as §1

[4] = compound: Cc1sc2c(c1C)C(c1ccc(Cl)cc1)=N[C@@H](CC(=O)OC(C)(C)C)c1nnc(C)n1-2
Summary of the method: as §1

[5] = compound: c1ccc([C@@H]2C[C@H]2NC2CCNCC2)cc1
Summary of the method: as §1

Measured: log2 fold change

EIF2B4 (UniProt Q9UI10)
inactive: [1] 0.028 | [2] 0.079 | [3] -0.005 | [4] -0.224

EIF2S2 (UniProt P20042)
inactive: [1] 0.038 | [2] -0.007 | [3] 0.019 | [4] -0.018 | [5] -0.02

EIF3A (UniProt Q14152)
inactive: [1] 0.013 | [2] 0.032 | [3] 0.033 | [4] -0.024 | [5] 0.024

ELP2 isoform 6 (UniProt Q6IA86)
inactive: [1] 0.021 | [2] -0.009 | [3] 0.004 | [4] -0.013 | [5] 0

EIPR1 (UniProt Q53HC9)
inactive: [1] 0.021 | [2] 0.009 | [3] 0.03 | [4] -0.04 | [5] -0.028

ELOVL1 (UniProt Q9BW60)
inactive: [1] -0.141 | [2] 0.05 | [3] 0.07 | [4] 0.021 | [5] 0.044

EIF3K (UniProt Q9UBQ5)
inactive: [1] -0.084 | [2] -0.026 | [3] 0.02 | [4] -0.01 | [5] 0.017

ENDOD1 (UniProt O94919)
inactive: [1] 0.052 | [2] -0.029 | [3] 0.034 | [4] -0.067 | [5] 0.068

EPS8L1 (UniProt Q8TE68)
inactive: [1] -0.003 | [2] 0.073 | [3] 0.098 | [4] 0.011 | [5] -0.074

Source: the supplement of paper PMC10849652
